From PMC4391915

How the values were obtained:
Assay in all cases: EMSA
[1] = molecular target: T1, Bichir VDR (Polypterus senegalus (Senegal bichir)) (UniProt A0A088GJ14); conditions: no RXR, with and without 1,25D3; 100 mM KCl, 10 mM HEPES pH 7.6, 1 mM EDTA, 20 mM MgCl2, 1 mM DTT, 0.1 mg/ml BSA, 4 ug/mL salmon sperm DNA, 1% glycerol, 25 C; 100 ng each protein, 1 pmol probe in 20 uL; recombinant protein; residues 1-421; protein details: pET32a affinity tags incl. polyhistidine; label: 5' Cy5 (unlabeled as competitor)
T1 sequence (looked up): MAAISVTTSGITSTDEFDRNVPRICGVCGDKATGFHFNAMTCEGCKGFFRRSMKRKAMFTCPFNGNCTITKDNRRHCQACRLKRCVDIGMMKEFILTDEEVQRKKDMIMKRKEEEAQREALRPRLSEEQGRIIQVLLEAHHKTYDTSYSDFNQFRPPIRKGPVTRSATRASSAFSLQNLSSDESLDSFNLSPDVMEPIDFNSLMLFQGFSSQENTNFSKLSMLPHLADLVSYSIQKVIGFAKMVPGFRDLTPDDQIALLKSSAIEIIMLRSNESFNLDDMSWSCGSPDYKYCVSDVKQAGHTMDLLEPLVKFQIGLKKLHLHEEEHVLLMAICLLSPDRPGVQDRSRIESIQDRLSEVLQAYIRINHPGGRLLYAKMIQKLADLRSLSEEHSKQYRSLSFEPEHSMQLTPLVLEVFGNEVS

Human VDR (Homo sapiens) = molecular target: T2, Human VDR (Homo sapiens) (UniProt P11473); conditions: no RXR, with and without 1,25D3; 100 mM KCl, 10 mM HEPES pH 7.6, 1 mM EDTA, 20 mM MgCl2, 1 mM DTT, 0.1 mg/ml BSA, 4 ug/mL salmon sperm DNA, 1% glycerol, 25 C; 100 ng each protein, 1 pmol probe in 20 uL; recombinant protein; residues 1-427; protein details: pET32a affinity tags incl. polyhistidine; label: 5' Cy5 (unlabeled as competitor)
T2 sequence (looked up): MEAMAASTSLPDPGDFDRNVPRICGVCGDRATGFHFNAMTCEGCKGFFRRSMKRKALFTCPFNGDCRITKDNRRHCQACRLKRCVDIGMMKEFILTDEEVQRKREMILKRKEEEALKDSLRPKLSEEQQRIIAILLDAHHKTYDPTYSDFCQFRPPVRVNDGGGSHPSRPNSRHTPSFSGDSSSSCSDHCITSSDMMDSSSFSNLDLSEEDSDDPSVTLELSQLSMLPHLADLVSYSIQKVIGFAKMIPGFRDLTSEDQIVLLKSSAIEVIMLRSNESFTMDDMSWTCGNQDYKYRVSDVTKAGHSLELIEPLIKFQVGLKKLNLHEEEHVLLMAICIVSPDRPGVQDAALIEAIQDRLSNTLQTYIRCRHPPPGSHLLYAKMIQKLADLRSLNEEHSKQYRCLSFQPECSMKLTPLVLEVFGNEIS

[2] = molecular target: T3, Lamprey VDR (Petromyzon marinus (sea lamprey)) (UniProt Q7ZZY9); conditions: no RXR, with and without 1,25D3; 100 mM KCl, 10 mM HEPES pH 7.6, 1 mM EDTA, 20 mM MgCl2, 1 mM DTT, 0.1 mg/ml BSA, 4 ug/mL salmon sperm DNA, 1% glycerol, 25 C; 100 ng each protein, 1 pmol probe in 20 uL; recombinant protein; residues 1-406; protein details: pET32a affinity tags incl. polyhistidine; label: 5' Cy5 (unlabeled as competitor)
T3 sequence (looked up): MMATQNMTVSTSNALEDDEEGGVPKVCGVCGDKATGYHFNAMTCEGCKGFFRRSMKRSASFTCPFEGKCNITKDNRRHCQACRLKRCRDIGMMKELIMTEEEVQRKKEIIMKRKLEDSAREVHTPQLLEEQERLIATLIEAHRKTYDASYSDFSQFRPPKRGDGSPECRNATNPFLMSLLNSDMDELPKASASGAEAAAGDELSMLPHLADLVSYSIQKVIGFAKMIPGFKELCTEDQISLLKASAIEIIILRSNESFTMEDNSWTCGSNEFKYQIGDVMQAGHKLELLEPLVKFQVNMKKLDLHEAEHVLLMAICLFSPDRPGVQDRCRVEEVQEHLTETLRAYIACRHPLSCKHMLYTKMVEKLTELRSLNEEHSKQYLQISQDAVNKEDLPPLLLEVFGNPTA

RXRWT = conditions: RXR alone; 100 mM KCl, 10 mM HEPES pH 7.6, 1 mM EDTA, 20 mM MgCl2, 1 mM DTT, 0.1 mg/ml BSA, 4 ug/mL salmon sperm DNA, 1% glycerol, 25 C; 100 ng each protein, 1 pmol probe in 20 uL; recombinant protein; protein details: polyhistidine; label: 5' Cy5 (unlabeled as competitor)
[3] = molecular target: T4, Skate VDR (Leucoraja erinacea (little skate)) (UniProt A0A088GDQ7); conditions: no RXR, with and without 1,25D3; 100 mM KCl, 10 mM HEPES pH 7.6, 1 mM EDTA, 20 mM MgCl2, 1 mM DTT, 0.1 mg/ml BSA, 4 ug/mL salmon sperm DNA, 1% glycerol, 25 C; 100 ng each protein, 1 pmol probe in 20 uL; recombinant protein; residues 1-434; label: 5' Cy5 (unlabeled as competitor)
T4 sequence (looked up): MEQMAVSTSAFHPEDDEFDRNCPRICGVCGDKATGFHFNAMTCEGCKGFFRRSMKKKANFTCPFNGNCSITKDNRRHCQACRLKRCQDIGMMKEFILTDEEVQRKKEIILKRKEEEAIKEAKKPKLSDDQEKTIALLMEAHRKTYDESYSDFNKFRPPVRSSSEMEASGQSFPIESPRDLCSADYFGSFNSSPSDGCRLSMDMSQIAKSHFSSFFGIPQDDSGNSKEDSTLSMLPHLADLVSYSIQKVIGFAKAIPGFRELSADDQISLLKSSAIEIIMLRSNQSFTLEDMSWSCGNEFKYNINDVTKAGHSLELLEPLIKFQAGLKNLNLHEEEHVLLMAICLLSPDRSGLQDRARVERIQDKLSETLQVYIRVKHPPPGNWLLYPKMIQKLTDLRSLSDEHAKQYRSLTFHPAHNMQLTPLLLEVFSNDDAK

Measured: binding result

AGCTTCAGGTCAAGGAGGTCAGAGAGC (double strand) [canonical VDRE (DR3)]
no binding: [1] | Human VDR (Homo sapiens) | [2] | RXRWT | [3]

GCTGAATGAACTTGCTGACCCTCTGCT (double strand) [XREM VDRE (CYP3A4 DR3)]
no binding: [1] | Human VDR (Homo sapiens) | [2] | [3]

Negatives hold for the conditions tested. For part of these data: Tags and fusion partners may be left off the protein sequences shown. For part of these data: The exact form of at least one protein or probe is not confirmed.
